Total and Unique data for 4 molecules are collected here from patent US12729225B2, “Non-canonical SWI/SNF complex and uses thereof” (Dana-Farber Cancer Institute, Inc., priority 2018, dated 2026).

The test system of this data set is mSWI/SNF complexes. Put plainly: mSWI/SNF complex purification with HA-tagged baits and mass spectrometry (peptide counts). Set-up: species or system human.
The mark [1] stands for this setting: 293_HA-BRD7: HA-BRD7 bait purification, total peptide count per co-purified protein.
[2] abbreviates: 293_HA-BRD7: HA-BRD7 bait purification, unique peptide count per co-purified protein.
The mark [3] stands for this setting: total peptide count of the co-purified protein, 293_HA-BRD9 (HA-BRD9 bait, mass spectrometry), Table 3b.
Where [4] appears, read: unique peptide count of the co-purified protein, 293_HA-BRD9 (HA-BRD9 bait, mass spectrometry), Table 3b.

B1: CPSF1 (protein, UniProt Q10570 1-1443, looked up)
Cleavage and polyadenylation …: MYAVYKQAHPPTGLEFSMYCNFFNNSERNLVVAGTSQLYVYRLNRDAEALTKNDRSTEGKAHREKLELAASFSFFGNVMSMASVQLAGAKRDALLLSFKDAKLSVVEYDPGTHDLKTLSLHYFEEPELRDGFVQNVHTPRVRVDPDGRCAAMLVYGTRLVVLPFRRESLAEEHEGLVGEGQRSSFLPSYIIDVRALDEKLLNIIDLQFLHGYYEPTLLILFEPNQTWPGRVAVRQDTCSIVAISLNITQKVHPVIWSLTSLPFDCTQALAVPKPIGGVVVFAVNSLLYLNQSVPPYGVALNSLTTGTTAFPLRTQEGVRITLDCAQATFISYDKMVISLKGGEIYVLTLITDGMRSVRAFHFDKAAASVLTTSMVTMEPGYLFLGSRLGNSLLLKYTEKLQEPPASAVREAADKEEPPSKKKRVDATAGWSAAGKSVPQDEVDEIEVYGSEAQSGTQLATYSFEVCDSILNIGPCANAAVGEPAFLSEEFQNSPEPDLEIVVCSGHGKNGALSVLQKSIRPQVVTTFELPGCYDMWTVIAPVRKEEEDNPKGEGTEQEPSTTPEADDDGRRHGFLILSREDSTMILQTGQEIMELDTSGFATQGPTVFAGNIGDNRYIVQVSPLGIRLLEGVNQLHFIPVDLGAPIVQCAVADPYVVIMSAEGHVTMFLLKSDSYGGRHHRLALHKPPLHHQSKVITLCLYRDLSGMFTTESRLGGARDELGGRSGPEAEGLGSETSPTVDDEEEMLYGDSGSLFSPSKEEARRSSQPPADRDPAPFRAEPTHWCLLVRENGTMEIYQLPDWRLVFLVKNFPVGQRVLVDSSFGQPTTQGEARREEATRQGELPLVKEVLLVALGSRQSRPYLLVHVDQELLIYEAFPHDSQLGQGNLKVRFKKVPHNINFREKKPKPSKKKAEGGGAEEGAGARGRVARFRYFEDIYGYSGVFICGPSPHWLLVTGRGALRLHPMAIDGPVDSFAPFHNVNCPRGFLYFNRQGELRISVLPAYLSYDAPWPVRKIPLRCTAHYVAYHVESKVYAVATSTNTPCARIPRMTGEEKEFETIERDERYIHPQQEAFSIQLISPVSWEAIPNARIELQEWEHVTCMKTVSLRSEETVSGLKGYVAAGTCLMQGEEVTCRGRILIMDVIEVVPEPGQPLTKNKFKVLYEKEQKGPVTALCHCNGHLVSAIGQKIFLWSLRASELTGMAFIDTQLYIHQMISVKNFILAADVMKSISLLRYQEESKTLSLVSRDAKPLEVYSVDFMVDNAQLGFLVSDRDRNLMVYMYLPEAKESFGGMRLLRRADFHVGAHVNTFWRTPCRGATEGLSKKSVVWENKHITWFATLDGGIGLLLPMQEKTYRRLLMLQNALTTMLPHHAGLNPRAFRMLHVDRRTLQNAVRNVLDGELLNRYLYLSTMERSELAKKIGTTPDIILDDLLETDRVTAHF
The molecule B1 displayed a Total under setting [1] of 29 and a Total under setting [3] of 3. Also, the Unique is on record as 26 under setting [2] and 3 under setting [4].

B2: MATR3 (protein, UniProt P43243 2-847, looked up)
Matrin-3: SKSFQQSSLSRDSQGHGRDLSAAGIGLLAAATQSLSMPASLGRMNQGTARLASLMNLGMSSSLNQQGAHSALSSASTSSHNLQSIFNIGSRGPLPLSSQHRGDADQASNILASFGLSARDLDELSRYPEDKITPENLPQILLQLKRRRTEEGPTLSYGRDGRSATREPPYRVPRDDWEEKRHFRRDSFDDRGPSLNPVLDYDHGSRSQESGYYDRMDYEDDRLRDGERCRDDSFFGETSHNYHKFDSEYERMGRGPGPLQERSLFEKKRGAPPSSNIEDFHGLLPKGYPHLCSICDLPVHSNKEWSQHINGASHSRRCQLLLEIYPEWNPDNDTGHTMGDPFMLQQSTNPAPGILGPPPPSFHLGGPAVGPRGNLGAGNGNLQGPRHMQKGRVETSRVVHIMDFQRGKNLRYQLLQLVEPFGVISNHLILNKINEAFIEMATTEDAQAAVDYYTTTPALVFGKPVRVHLSQKYKRIKKPEGKPDQKFDQKQELGRVIHLSNLPHSGYSDSAVLKLAEPYGKIKNYILMRMKSQAFIEMETREDAMAMVDHCLKKALWFQGRCVKVDLSEKYKKLVLRIPNRGIDLLKKDKSRKRSYSPDGKESPSDKKSKTDGSQKTESSTEGKEQEEKSGEDGEKDTKDDQTEQEPNMLLESEDELLVDEEEAAALLESGSSVGDETDLANLGDVASDGKKEPSDKAVKKDGSASAAAKKKLKKVDKIEELDQENEAALENGIKNEENTEPGAESSENADDPNKDTSENADGQSDENKDDYTIPDEYRIGPYQPNVPVGIDYVIPKTGFYCKLCSLFYTNEEVAKNTHCSSLPHYQKLKKFLNKLAEERRQKKET
B2: the Total reads like this: under setting [1], 14; under setting [3], 3. Besides, the Unique is, setting by setting: under setting [2], 13; under setting [4], 3.

B3: SLC25A12 (protein, UniProt O75746 2-678, looked up)
Electrogenic …: AVKVQTTKRGDPHELRNIFLQYASTEVDGERYMTPEDFVQRYLGLYNDPNSNPKIVQLLAGVADQTKDGLISYQEFLAFESVLCAPDSMFIVAFQLFDKSGNGEVTFENVKEIFGQTIIHHHIPFNWDCEFIRLHFGHNRKKHLNYTEFTQFLQELQLEHARQAFALKDKSKSGMISGLDFSDIMVTIRSHMLTPFVEENLVSAAGGSISHQVSFSYFNAFNSLLNNMELVRKIYSTLAGTRKDVEVTKEEFAQSAIRYGQVTPLEIDILYQLADLYNASGRLTLADIERIAPLAEGALPYNLAELQRQQSPGLGRPIWLQIAESAYRFTLGSVAGAVGATAVYPIDLVKTRMQNQRGSGSVVGELMYKNSFDCFKKVLRYEGFFGLYRGLIPQLIGVAPEKAIKLTVNDFVRDKFTRRDGSVPLPAEVLAGGCAGGSQVIFTNPLEIVKIRLQVAGEITTGPRVSALNVLRDLGIFGLYKGAKACFLRDIPFSAIYFPVYAHCKLLLADENGHVGGLNLLAAGAMAGVPAASLVTPADVIKTRLQVAARAGQTTYSGVIDCFRKILREEGPSAFWKGTAARVFRSSPQFGVTLVTYELLQRWFYIDFGGLKPAGSEPTPKSRIADLPPANPDHIGGYRLATATFAGIENKFGLYLPKFKSPSVAVVQPKAAVAATQ
In the case of B3, the Total is, setting by setting: under setting [1], 9; under setting [3], 3. Moreover, the Unique is reported as 9 under setting [2] and 3 under setting [4].

B4: IMMT (protein, UniProt Q16891 34-758, looked up)
MICOS complex subunit MIC60: STSGSSGLTTGKIAGAGLLFVGGGIGGTILYAKWDSHFRESVEKTIPYSDKLFEMVLGPAAYNVPLPKKSIQSGPLKISSVSEVMKESKQPASQLQKQKGDTPASATAPTEAAQIISAAGDTLSVPAPAVQPEESLKTDHPEIGEGKPTPALSEEASSSSIRERPPEEVAARLAQQEKQEQVKIESLAKSLEDALRQTASVTLQAIAAQNAAVQAVNAHSNILKAAMDNSEIAGEKKSAQWRTVEGALKERRKAVDEAADALLKAKEELEKMKSVIENAKKKEVAGAKPHITAAEGKLHNMIVDLDNVVKKVQAAQSEAKVVSQYHELVVQARDDFKRELDSITPEVLPGWKGMSVSDLADKLSTDDLNSLIAHAHRRIDQLNRELAEQKATEKQHITLALEKQKLEEKRAFDSAVAKALEHHRSEIQAEQDRKIEEVRDAMENEMRTQLRRQAAAHTDHLRDVLRVQEQELKSEFEQNLSEKLSEQELQFRRLSQEQVDNFTLDINTAYARLRGIEQAVQSHAVAEEEARKAHQLWLSVEALKYSMKTSSAETPTIPLGSAVEAIKANCSDNEFTQALTAAIPPESLTRGVYSEETLRARFYAVQKLARRVAMIDETRNSLYQYFLSYLQSLLLFPPQQLKPPPELCPEDINTFKLLSYASYCIEHGDLELAAKFVNQLKGESRRVAQDWLKEARMTLETKQIVEILTAYASAVGIGTTQVQPE
For the molecule B4, the Total runs as follows: under setting [1], 8; under setting [3], 3. Besides, the Unique under setting [2] is reported as 7 and the Unique under setting [4] is 3.
